Measured values published in PubChem BioAssay AID1487 (National Center for Advancing Translational Sciences (NCATS), 2009).
Where “and” joins values, the source holds several entries; their conditions need not be identical. Equal entries are not always repeated. The list shows a part of the results. Shown are side measurements of this screen, not its main read-out; they come without a call. Compounds called inactive in the main read-out are mostly missing here. Potencies come from curve fits of mixed quality, noted in brackets.

Experiment: qHTS Assay for Modulators of Lamin A Splicing
Settings: HeLa LMNA splicing GFP/RFP minigene ratio, 48 h
Summary of the method: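 Read-out is the ratio of GFP to DsRed2 object intensity, acquired by 488 nm laser-scanning cytometry on HeLa lamin A-EGFP minigene reporter cells. Compound incubation 48 hrs at 37 °C in Opti-MEM with 2% FBS; DMSO 0.5% final.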

[1] = measured here: RFP viability control channel
[2] = measured here: GFP splicing reporter channel

Row | SMILES | AC50 [1] | AC50 [2]
1 | O=[N+]([O-])c1cc(F)c(N2CCCC2)cc1N1CCNCC1 | 0.794 µM [falling, full curve, poor fit] | –
2 | Cc1nc2ccccc2c(=O)n1-c1ccccc1[N+](=O)[O-] | – | 0.0316 µM [rising, full curve, poor fit]
3 | CC[C@H]1CN2CCc3cc(OC)c(OC)cc3[C@@H]2C[C@@H]1C[C@H]1NCCc2cc(OC)c(OC)cc21 | 0.02 µM [falling, full curve] | 15.8 nM [falling, full curve] and 1 µM [falling, full curve]
4 | CCCCn1c(NC(=O)c2ccc(Br)o2)c(C(=O)OCC)c2nc3ccccc3nc21 | – | 12.6 µM [rising, single point]
5 | COc1cc([C@@H]2c3cc4c(cc3[C@H](O)[C@H]3COC(=O)[C@H]23)OCO4)cc(OC)c1OC | 31.6 nM [rising, full curve] and 28.2 nM [rising, full curve] | 126 nM [rising, full curve] and 10 µM [falling, partial curve]
6 | CCCNS(=O)(=O)c1ccc(OCC(=O)N2CCN(Cc3ccccc3)CC2)cc1 | 11.2 µM [rising, single point] | –
7 | CN1CC[C@@]23CCCC[C@@H]2[C@@H]1Cc1ccc(O)cc13 | 35.5 µM [rising, single point] | –
8 | CN=C(NC#N)NCCSCc1nc[nH]c1C | 5.01 µM [rising, single point] | –
9 | Cc1sc(NC(=O)Cn2c(=O)oc3ccccc32)nc1-c1ccc(Cl)cc1 | 7.94 µM [rising, partial curve] | –
10 | N#Cc1ccc(Cn2cc(C(=O)c3ccco3)c3ccccc32)cc1 | 35.5 µM [rising, single point] | 35.5 µM [rising, single point]
11 | CCOC(=O)CNC(=O)CNC(=O)C(Cc1ccc(N(CCCl)CCCl)cc1)NC(C)=O (stereo unspecified) | – | 35.5 µM [falling, partial curve, poor fit]
12 | CCNC(C)Cc1cccc(C(F)(F)F)c1 (stereo unspecified) | – | 35.5 µM [falling, single point]
13 | Cc1ccc(C(=O)NC2CCN(S(=O)(=O)c3ccc(C)cc3)CC2)cc1 | 35.5 µM [falling, partial curve, poor fit] | –
14 | COCCOC(=O)c1c(C)oc2ccc(OC(=O)N(C)C)cc12 | 0.141 µM [falling, full curve, poor fit] | –
15 | O=C(Cn1cnc2ccccc2c1=O)NCCC(=O)N1CCC2(CC1)OCCO2 | – | 4.47 µM [rising, partial curve]
16 | CS(=N)(=O)CC[C@H](N)C(=O)O (stereo partly specified) | – | 35.5 µM [rising, partial curve, poor fit]
17 | Cc1cccc(-n2c(/C=C/c3ccc([N+](=O)[O-])o3)nc3ccccc3c2=O)c1 | – | 35.5 µM [falling, single point]

Copied from the list:
Entry of Cc1cccc(-n2c(/C=C/c3ccc([N+](=O)[O-])o3)nc3ccccc3c2=O)c1 under AC50 [2]: 35.5 µM [falling, single point]
Entry of O=C(Cn1cnc2ccccc2c1=O)NCCC(=O)N1CCC2(CC1)OCCO2 under AC50 [2]: 4.47 µM [rising, partial curve]

(continued)

Row | SMILES | AC50 [1] | AC50 [2]
18 | Cc1cccc(N2C(=O)NC(=O)/C(=C\c3cccn3-c3ccc(Cl)cc3)C2=O)c1 | 31.6 µM [falling, single point] | 15.8 µM [falling, single point]
19 | CN(C)c1ccc(CN2CCc3nc(N4CCN(c5ccccn5)CC4)ncc3C2)cc1 | – | 10 µM [falling, partial curve, poor fit]
20 | C1CCC(NC2CCCCC2)CC1 | 2.82 µM [falling, partial curve] | 11.2 µM [rising, partial curve, poor fit]
21 | Cc1oc(-c2ccccc2Cl)nc1CN1C(=O)CN=C(c2ccccc2)c2ccccc21 | 17.8 µM [rising, partial curve, poor fit] | 11.2 µM [rising, partial curve, poor fit]
22 | N#CC(C(=O)C12CC3CC(CC(C3)C1)C2)c1nc2ccccc2[nH]1 (stereo unspecified) | 35.5 µM [rising, single point] | 31.6 µM [rising, single point]
23 | Cc1cc(C)nc(N2Cc3ccccc3C2=N)n1 | 12.6 µM [rising, single point] | –
24 | COc1ccc2c(c1)/C(=C/c1cnc[nH]1)C(=O)N2 | 11.2 µM [falling, partial curve] | 11.2 µM [falling, partial curve]
25 | Cc1cc(C(=O)Cn2nnc(-c3ccc(Cl)cc3)n2)c(C)n1-c1ccccc1 | 12.6 µM [rising, partial curve] | 12.6 µM [rising, partial curve]
26 | Cn1cc(C(=O)Cc2ccccc2)c2ccccc21 | 15.8 µM [rising, single point] | –
27 | OC(c1ccc(F)cc1)C(c1ccccc1)N1CCOCC1 (stereo unspecified) | – | 3.55 µM [rising, partial curve, poor fit]
28 | CNC(=O)Oc1ccc(-c2cn3cc(C)ccc3n2)cc1 | 10 µM [rising, single point] | –
29 | Oc1c(Cl)c(Cl)c(Cl)c(Cl)c1Cl | 20 µM [falling, single point] | 14.1 µM [falling, single point]
30 | COC(=O)C1=C(C)NC(C)=C(C(=O)OC)C1c1ccccc1[N+](=O)[O-] | 22.4 µM [falling, single point] and 1.12 µM [falling, partial curve, poor fit] | 17.8 µM [falling, partial curve, poor fit]
31 | CC(C)c1oc(=O)cc2c1[C@@H](O)[C@H]1OC(=O)[C@@]3(C)C[C@@H](O)[C@@H](O)[C@@]2(C)C13 (stereo partly specified) | – | 0.224 µM [falling, full curve]
32 | Cc1cccn2c(=O)cc(COc3cccc(NC(=O)COc4ccc(F)cc4)c3)nc12 | 11.2 µM [falling, partial curve] | 14.1 µM [falling, partial curve]
33 | Ic1ccccc1CNC1C2CCN(CC2)C1C(c1ccccc1)c1ccccc1 (stereo unspecified) | 35.5 µM [falling, partial curve, poor fit] | 31.6 µM [falling, partial curve, poor fit]
